Laboratory results taken from PMC4773855.
Positions count from the first letter of the chain named. Names and notes keep the numbering of the source. These are yes or no findings as the source states them, for the method shown. Binding seen in cells or lysates may run through a third protein. A result given as binding can be weak or reduced; the word gives no strength. Where a sequence is shown, tags or fusion partners need not be part of it.

B1: HA-tagged full-length wild type human LARP6 (La ribonucleoprotein domain family, member 6) (protein, UniProt Q9BRS8 1-491)
chain: MAQSGGEARPGPKTAVQIRVAIQEAEDVDELEDEEEGAETRGAGDPARYLSPGWGSASEEEPSRGHSGTTASGGENEREDLEQEWKPPDEELIKKLVDQIEFYFSDENLEKDAFLLKHVRRNKLGYVSVKLLTSFKKVKHLTRDWRTTAHALKYSVVLELNEDHRKVRRTTPVPLFPNENLPSKMLLVYDLYLSPKLWALATPQKNGRVQEKVMEHLLKLFGTFGVISSVRILKPGRELPPDIRRISSRYSQVGTQECAIVEFEEVEAAIKAHEFMITESQGKENMKAVLIGMKPPKKKPAKDKNHDEEPTASIHLNKSLNKRVEELQYMGDESSANSSSDPESNPTSPMAGRRHAATNKLSPSGHQNLFLSPNASPCTSPWSSPLAQRKGVSRKSPLAEEGRLNCSTSPEIFRKCMDYSSDSSVTPSGSPWVRRRRQAEMGTQEKSPGTSPLLSRKMQTADGLPVGVLRLPRGPDNTRGFHGHERSRACV
B2: HA-tagged LARP6 S451A mutant (protein, UniProt Q9BRS8 1-491)
chain: B1 chain with S451A

Target: endogenous Akt (human (endogenous in HLFs))
Experiment: co-IP; HLF lysate (50 mM Tris-HCl pH 7.5, 150 mM NaCl, 0.5% NP-40, 1 mM DTT); immunoprecipitation with anti-Akt antibody or control antibody for 3 h at 4 °C, protein A/G-agarose beads; Western blot with anti-HA antibody

Binder | binding
B1 | binds
B2 | binds
